For this assay, the target named is KSP (Homo sapiens, UniProt P52732). Put plainly: KSP inhibitory activity, end-point assay. The conditions noted are these: read-out: IC50 Rating; KSP inhibitory activity based on end-point assay.

The chains behind the UniProt entries cited, without tags or fusion partners.
UniProt P52732, whole entry: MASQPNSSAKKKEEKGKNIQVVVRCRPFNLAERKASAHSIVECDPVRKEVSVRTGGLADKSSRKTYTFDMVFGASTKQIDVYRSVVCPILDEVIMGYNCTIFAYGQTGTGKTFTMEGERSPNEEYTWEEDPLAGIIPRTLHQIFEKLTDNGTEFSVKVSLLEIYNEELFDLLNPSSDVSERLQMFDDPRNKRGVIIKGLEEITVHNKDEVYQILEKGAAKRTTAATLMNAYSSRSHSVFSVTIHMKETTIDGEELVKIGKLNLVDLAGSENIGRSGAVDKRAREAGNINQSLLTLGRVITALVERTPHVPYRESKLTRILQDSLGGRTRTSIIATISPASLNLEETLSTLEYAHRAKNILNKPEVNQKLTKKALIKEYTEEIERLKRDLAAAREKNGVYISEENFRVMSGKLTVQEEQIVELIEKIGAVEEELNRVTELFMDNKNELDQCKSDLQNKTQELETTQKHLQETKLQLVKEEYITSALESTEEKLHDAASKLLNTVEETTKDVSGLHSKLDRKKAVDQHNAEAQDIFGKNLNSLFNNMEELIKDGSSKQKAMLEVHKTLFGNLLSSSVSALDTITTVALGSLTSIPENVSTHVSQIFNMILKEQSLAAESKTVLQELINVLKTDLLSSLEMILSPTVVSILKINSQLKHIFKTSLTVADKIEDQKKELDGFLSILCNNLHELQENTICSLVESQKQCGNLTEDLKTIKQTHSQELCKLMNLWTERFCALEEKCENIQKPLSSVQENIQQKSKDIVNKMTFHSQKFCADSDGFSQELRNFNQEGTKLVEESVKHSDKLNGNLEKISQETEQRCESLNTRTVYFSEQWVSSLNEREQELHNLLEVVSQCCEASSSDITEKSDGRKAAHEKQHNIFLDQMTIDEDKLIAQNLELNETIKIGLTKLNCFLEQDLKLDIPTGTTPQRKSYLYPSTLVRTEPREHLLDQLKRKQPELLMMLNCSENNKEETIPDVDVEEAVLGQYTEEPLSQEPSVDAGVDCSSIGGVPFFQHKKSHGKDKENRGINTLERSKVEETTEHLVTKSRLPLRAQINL

The text below walks through data of US20100068181A1, “PYRROLO [3, 2-A] PYRIDINE DERIVATIVES FOR INHIBITING KSP KINESIN ACTIVITY” (Schering Corporation, priority 2006, published 2010).

Molecules are shown by their SMILES. pIC50: −log10 of the molar value. The match of structure and compound is tentative.

Usually pIC50 stands for the negative decadic logarithm of the IC50, by convention in mol/L.

For `CC(C)(C)C1CCc2nc3c(CCCCO)c(C(=O)NCCN)[nH]c3cc2C1` (stereo not shown), the pIC50 is 6.00 to 7.00.
